Measured values from PubChem BioAssay AID504648 (National Center for Advancing Translational Sciences (NCATS), 2011).
Among all 390,000 compounds or so, about 610 (0.16%) were called active. Inconclusive results, whose numbers are uncertain, are shown with a selection of clear calls. Calls come from the whole dose curve; as a rule, active = well fitted inhibition curve with a large enough effect; inconclusive = small, poorly fitted or top-dose-only effect, or effect the other way, or another doubt; inactive = no such curve, though single readings can be large or run the other way. Potencies of inconclusive entries are doubtful fits and often do not repeat.

test: Nrf2 qHTS screen for inhibitors: counterscreen for cytotoxicity; conditions: A549 ARE-Fluc cells, CellTiter-Fluor viability, 18-24 h; activity change, negative = cytotoxicity: at 46 µM (top of the series)
Method in brief: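 Cytotoxicity counterscreen: CellTiter-Fluor fluorescence was measured in A549 ARE_Fluc cells after 18-24 h of compound exposure in a concentration series. The subsequent BugLite luminescent read reports ARE-luciferase activity.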
% is set by controls: 0 for no effect and ±100 for the full control effect; potency is the fitted concentration of half-maximal effect.

Compound | Potency | activity change, negative = cytotoxicity
COc1ccc(NC(=O)CSc2ccc3c4c(cccc24)C(=O)c2ccccc2-3)cc1 | inconclusive: 4.11 µM [falling, single point] | –
CCSc1nn(CC(=O)Nc2cccc(Cl)c2)c(N)c1S(=O)(=O)c1ccc(OC)cc1 | inconclusive: 18.4 µM [falling, single point] | –
CCC(C)n1c(/C=C/c2ccccc2)nc2ccccc21 (stereo not drawn) | – | inactive: 4.46%
O=C(/C=C/c1ccco1)Nc1cccnc1Cl | inconclusive: 25.9 µM [activator, partial curve, poor fit] | –
C=CCc1cc(/C=C/c2nc(O)c([N+](=O)[O-])c(=O)[nH]2)cc(OC)c1O | inconclusive: 23.1 µM [falling, partial curve, poor fit] | –
COc1cccc(S(=O)(=O)N2CCN(S(=O)(=O)c3ccc4c(c3)OCCO4)CC2)c1 | inactive | –
Cc1ccc(NC(=O)CN2C(=O)S/C(=C\c3ccc(-c4cccc(C(=O)O)c4C)o3)C2=O)cc1C | inconclusive: 29.1 µM [falling, single point] | –
OC1(Cc2cc(-c3ccccc3)no2)CCN(CCCc2ccccc2)CC1 | inconclusive: 16.4 µM [falling, partial curve, poor fit] | –
CCS(=O)(=O)N1CCc2cc(C(=O)NCCc3ccc(OC)c(OC)c3)ccc21 | inconclusive: 23.1 µM [falling, partial curve, poor fit] | –
Cc1c(/C=N/NC(=O)c2ccccc2O)c2ccccn2c1C(=O)c1ccc(F)cc1 | active: 18.4 µM | –
Cc1cccc(C(=O)NNC(=S)NC(=O)c2cccs2)c1 | inconclusive: 23.1 µM [falling, partial curve, poor fit] | –
COc1ccc2nc(NC(=O)c3cc(S(=O)(=O)N4CCOCC4)ccc3C)sc2c1 | inconclusive: 2.59 µM [falling, partial curve, poor fit] | –
O=C1/C(=N\S(=O)(=O)c2cccs2)C([n+]2ccccc2)=C([O-])c2ccccc21 | inconclusive: 29.1 µM [falling, single point] | –
Cc1c(P(=S)(c2ccccc2)c2ccccc2)c2ccccc2n1CCc1ccccc1 | – | inactive: -0.21%
Cc1sc2ncnc(N3CCC(C(=O)Nc4ccc(Cl)c(Cl)c4)CC3)c2c1C | – | inactive: -5.78%
O=C(c1cccs1)N(Cc1cccnc1)c1nc2c(F)cc(F)cc2s1 | – | inactive: -19.4%
Cn1c(=O)c2[nH]c(CNCc3ccccc3Cl)nc2n(C)c1=O | – | inactive: -12.3%
CC(/C=C/c1ccc(N(C)C)cc1)=N\N=C1\NC(=O)CC(C(=O)Nc2ccccc2)S1 (stereo not drawn) | – | inactive: -27.9%
CCn1c(=O)cc(OCC(=O)Nc2cc(C)ccn2)c2ccccc21 | inconclusive: 0.82 µM [falling, single point] | –
CCc1ccccc1NC(=S)NCCSc1ccc(Cl)cc1 | inconclusive: 18.4 µM [falling, single point] | –
CCCOc1ccc(C2C(C(=O)c3ccc(C)o3)=C(O)C(=O)N2Cc2ccco2)cc1 (stereo not drawn) | inconclusive: 23.1 µM [falling, partial curve, poor fit] | –
C[n+]1ccccc1/C=C/c1ccc([N+](=O)[O-])cc1 | inconclusive: 7.31 µM [falling, partial curve] | –
O=C(Nc1cc2c(oc1=O)CCCC2=O)c1cccc(Cl)c1 | – | inactive: 7.43%

Structures from the list above with a halogen:
Compound | Potency | activity change, negative = cytotoxicity
CCSc1nn(CC(=O)Nc2cccc(Cl)c2)c(N)c1S(=O)(=O)c1ccc(OC)cc1 | inconclusive: 18.4 µM [falling, single point] | –
O=C(/C=C/c1ccco1)Nc1cccnc1Cl | inconclusive: 25.9 µM [activator, partial curve, poor fit] | –
Cc1c(/C=N/NC(=O)c2ccccc2O)c2ccccn2c1C(=O)c1ccc(F)cc1 | active: 18.4 µM | –
Cc1sc2ncnc(N3CCC(C(=O)Nc4ccc(Cl)c(Cl)c4)CC3)c2c1C | – | inactive: -5.78%
O=C(c1cccs1)N(Cc1cccnc1)c1nc2c(F)cc(F)cc2s1 | – | inactive: -19.4%
Cn1c(=O)c2[nH]c(CNCc3ccccc3Cl)nc2n(C)c1=O | – | inactive: -12.3%
CCc1ccccc1NC(=S)NCCSc1ccc(Cl)cc1 | inconclusive: 18.4 µM [falling, single point] | –
O=C(Nc1cc2c(oc1=O)CCCC2=O)c1cccc(Cl)c1 | – | inactive: 7.43%

Given as a markdown table: part of the list above.

| Compound | Potency | activity change, negative = cytotoxicity |
| --- | --- | --- |
| CCC(C)n1c(/C=C/c2ccccc2)nc2ccccc21 (stereo not drawn) | – | inactive: 4.46% |
| Cc1ccc(NC(=O)CN2C(=O)S/C(=C\c3ccc(-c4cccc(C(=O)O)c4C)o3)C2=O)cc1C | inconclusive: 29.1 µM [falling, single point] | – |

(listing goes on)

Compound | Potency | activity change, negative = cytotoxicity
O=C(c1ccc(S(=O)(=O)c2cccc(Cl)c2)c([N+](=O)[O-])c1)N1CCN(c2ccccn2)CC1 | inconclusive: 29.1 µM [falling, single point] | –
CCOc1cc(-c2nccc3cc(OC)c(OC)cc23)cc(OCC)c1OCC | – | inactive: -21.7%
CCCn1c(CC)nc([N+](=O)[O-])c1S(=O)(=O)c1ccccc1 | inconclusive: 25.9 µM [falling, single point] | –
COc1ccc(C(=O)Nn2cnc3scc(-c4cccs4)c3c2=O)c(O)c1 | – | inactive: -4.19%
CN1C(=O)S/C(=C\c2ccc(-n3cncn3)cc2)C1=O | – | inactive: 2.96%
N#Cc1ccc(-c2ccc(C3Nc4ccccc4C(=O)N3O)o2)cc1 (stereo not drawn) | – | inactive: -13.6%
CC1Sc2ccc(C(=O)NCc3ccccn3)cc2NC1=O (stereo not drawn) | – | inactive: -0.0028%
COc1cc(-c2noc(C3CCCN(C(=O)c4ccccc4)C3)n2)cc(OC)c1OC (stereo not drawn) | – | inactive: 13%
Cc1ccc(C)c(C(=O)O/N=C(\N)c2ccc(Br)cc2)c1 | inconclusive: 29.1 µM [falling, single point] | –
C=CCSC1=N/C(=C\c2cc(OCC)c(OC(C)=O)c([N+](=O)[O-])c2)C(=O)S1 | – | inactive: -2.45%
Cc1cccc(C(=O)NNC(=O)c2cc3cc4ccccc4nc3s2)c1 | inconclusive: 4.61 µM [falling, partial curve, poor fit] | –
COc1cccc2c(=O)c3c(cnn3C)n(C)c12 | inconclusive: 20.6 µM [activator, partial curve] | –
COc1cccc(C(=O)NCCCNC(=O)c2cccnc2)c1 | inconclusive: 23.1 µM [activator, partial curve, poor fit] | –
CC(C)OC(=O)c1ccc2nc3ccccc3nc2c1 | inconclusive: 3.26 µM [falling, full curve] | –
CCCC(=O)Nc1ccc2c(c1)nc1n2CCOC1 | inconclusive: 25.9 µM [activator, single point] | –
COc1cccc2cc(-c3nnc(SCC(=O)Nc4nc(C)cs4)n3C)oc12 | inconclusive: 23.1 µM [falling, single point] | –
COc1cc(NC(=O)CN2CCN(c3ccccc3O)CC2)c(C)cc1[N+](=O)[O-] | – | inactive: -2.39%
CCOc1cc(C(=O)OCc2cc(=O)n3nc(CC)sc3n2)cc(OCC)c1OCC | – | inactive: 12.1%
CN(C)/C(Cn1cncn1)=C1/N=C(c2ccccc2)OC1=O | inconclusive: 13 µM [falling, partial curve] | –
COc1cccc(N2CCN(c3ncnc4c3cnn4-c3ccc(C)cc3C)CC2)c1 | inconclusive: 23.1 µM [falling, single point] | –
COc1ccc(OCc2nc3ccccc3n2Cc2ccccc2Cl)cc1 | – | inactive: -3.07%
NS(=O)(=O)c1ccc(N/N=C/C=C/c2ccccc2[N+](=O)[O-])cc1 | inconclusive: 29.1 µM [falling, single point] | –
C=C1C(=O)O[C@H]2C[C@H]1[C@@H](OC(C)=O)C/C(C)=C/CC/C(C)=C\CC[C@]2(C)O | inconclusive: 18.4 µM [falling, single point] | –

Compound | Potency | activity change, negative = cytotoxicity
Cn1c(=O)cc(OCCCC(=O)NCCCN2CCN(Cc3ccccc3)CC2)c2ccccc21 | inconclusive: 1.46 µM [activator, partial curve, poor fit] | –
COc1cccc(CC2(CO)CCN(Cc3ccc(NC(C)=O)cc3)CC2)c1 | inconclusive: 25.9 µM [falling, single point] | –
COC(=O)c1ccccc1NC(=O)NCc1cccnc1 | – | inactive: -0.138%
O=C(c1cccc(S(=O)(=O)N2CCc3ccccc32)c1)N1CCN(c2ccccc2)CC1 | inconclusive: 20.6 µM [falling, partial curve, poor fit] | –
Cc1cc2ccccc2c(=O)n1CC(=O)NCC1COc2ccccc2O1 (stereo not drawn) | – | inactive: 2.51%
CCC1CCCCN1C(=O)CSc1nc2c(c(=O)n1C)SC(C)C2 (stereo not drawn) | inconclusive: 23.1 µM [falling, partial curve, poor fit] | –
Cc1nnnn1/C(=C\c1ccccc1)C(=O)OCC(=O)Nc1ccc(Cl)cc1F | inconclusive: 23.1 µM [falling, single point] | –
COc1ccccc1NC(=O)CN1CCN(C2c3ccccc3-c3ccccc32)CC1 | – | inactive: -21%
O=C(O)Cn1cc(/C=N/Nc2ccc([N+](=O)[O-])cn2)c2ccccc21 | inconclusive: 20.6 µM [falling, single point] | –
O=[N+]([O-])c1ccc(N2CCCCC2)nc1N1CCCCC1 | inconclusive: 23.1 µM [falling, partial curve, poor fit] | –
CC(C)c1ccc(/C=C/C(=O)Nc2ccc(CN3CCOCC3)cc2)cc1 | inconclusive: 29.1 µM [falling, single point] | –
COC(=O)c1ccc(NC(=O)CSc2nc(=O)[nH]c3c2CCCC3)cc1 | – | inactive: -3.92%
CCCCc1ccc(NC(=S)NCCc2ccc(F)cc2)cc1 | inconclusive: 18.4 µM [falling, single point] | –
O=C(/C=C/c1ccccc1)N1CCN(CCN2C(=O)c3cccc4cccc(c34)C2=O)CC1 | – | inactive: 8.32%
CCCCNC(=O)Nc1ccccc1C(=O)NCCC | inconclusive: 2.06 µM [activator, partial curve] | –
CCc1ccc(/C=C2/SC(=S)N(CCC(=O)NCCCN3CCOCC3)C2=O)cc1 | inconclusive: 20.6 µM [falling, single point] | –
OC[C@@H]1[C@@H](c2ccc(F)cc2)C(c2cccc(Cl)c2)=NN1c1ccccc1 | inconclusive: 20.6 µM [activator, single point] | –
CN1C(=O)NC(c2ccc(C(F)(F)F)cc2)C2=C1CC(C)(C)CC2=O (stereo not drawn) | inconclusive: 29.1 µM [activator, single point] | –
COc1ccc(Br)cc1Cn1nnc(C(=O)Nc2cccc(SC)c2)c1N | inconclusive: 29.1 µM [activator, partial curve, poor fit] | –
Cc1cc(/C=C2\SC(=Nc3ccc(F)cc3)NC2=O)c(C)n1-c1ccc(S(N)(=O)=O)cc1 | inconclusive: 20.6 µM [falling, single point] | –
COc1ccc(OC)c(CC(NC(C)=O)C(=O)NC2CCN(c3nnnn3-c3ccccc3)CC2)c1 (stereo not drawn) | inconclusive: 29.1 µM [falling, single point] | –
COc1ccc(OC)c(/C=C/c2[nH]c(=O)[nH]c(=O)c2[N+](=O)[O-])c1 | inconclusive: 13 µM [falling, partial curve, poor fit] | –
